# Values of other authors in US20090104598A1, “Dopamine D2 receptor gene variants” (CENTRE FOR ADDICTION AND MENTAL HEALTH, priority 2006, published 2009).
# For at least one compound, name, drawing or mass did not settle the structure.
# Test system: schizophrenic patients
# Details: estimate, Meltzer 1997; cited from earlier work
smiles,measurement,value
CN1CCN(C2=Nc3cc(Cl)ccc3Nc3ccccc32)CC1 [clozapine],share of schizophrenic patient population for which it is an effective treatment,at least 70%
